{"source": "patent US6096874A", "about": "(Board of Regents, the University of Texas System, priority 1995, dated 2000)", "system": "breast tumors", "experiment": "PET imaging of ER+ breast tumors in patients", "format": "in vivo, human", "conditions": "2 hours postinjection", "note": "“Also recorded” adds a separate entry of the source."}
{"compound": "CCN(CC)CCOc1ccc(/C(=C(/CCC[18F])c2ccccc2)c2ccccc2)cc1", "note": "[[^18 F]FTX, (trans)[^18 F]Fluoromethyl-N,N-diethyltamoxifen]", "values": [{"measurement": "Detection/uptake in patients (in words)", "value": "breast tumors of all three patients showed uptake; also recorded: liver and lung uptakes were high at 2 hours postinjection; also recorded: primary (left breast) and metastatic (right lymph node) breast tumors could be detected"}, {"measurement": "Detection/uptake in patients (in words)", "setting": "listed as 18 F-labeled tamoxifen ligand", "value": "both primary and metastatic breast tumors could be diagnosed"}]}
